# PubChem BioAssay AID743121 – NCATS – 2013
# Aim: 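Genes whose silencing strengthens cell killing by camptothecin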 (primary screen)
# Cells: MDA-MB-231 cells, a human breast cancer line
# Reagents: single siRNA against human genes, 20 nM siRNA (0.8 pmol per well)
# Duration: 120 h (drug added 48 h after transfection, read 72 h later)
# Conditions: camptothecin 20 nM (about EC30) for 72 h; vehicle 0.1% DMSO in parallel plates
# Measured: 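CellTiter-Glo ATP signal, scaled to control siRNA as percent viability; sensitisation given as log2 of untreated divided by camptothecin-treated viability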
# Direction: log2 vehicle/camptothecin viability: higher = stronger sensitisation to camptothecin
# Active means: 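Each gene scored by redundant siRNA activity (RSA) over its individual siRNA ratios; a gene is called active at p < 0.001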
# The whole screen tested about 26,000 reagents; this is an unselected part. Over the whole deposit, 167 (0.63%) got an active call. 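Calls are per gene from RSA p-values that are not deposited; an individual active-marked siRNA can sensitise only weakly.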 The numbers tell different reagents against one gene apart. Further read-outs or replicates are left out here.
gene,siRNA no.,log2 vehicle/camptothecin viability,Call
NR1H4,1,-0.283,inactive
NR1H4,2,-0.124,inactive
NR1H4,3,0.0673,inactive
NR1H4,4,-0.179,inactive
PDE8A,1,-0.278,inactive
PDE8A,2,-0.196,inactive
PDE8A,3,-0.373,inactive
PDE8A,4,-0.265,inactive
ITGB3,1,0.135,inactive
ITGB3,2,-0.548,inactive
ITGB3,3,0.015,inactive
ITGB3,4,-0.542,inactive
SIGLEC11,1,-0.483,inactive
SIGLEC11,2,-0.417,inactive
SIGLEC11,3,0.324,inactive
MTMR1,1,-0.182,inactive
MTMR1,2,-0.208,inactive
MTMR1,3,-0.179,inactive
MTMR1,4,0.167,inactive
GPR183,1,0.059,inactive
GPR183,2,-0.254,inactive
GPR183,3,0.548,inactive
GPR183,4,-0.0347,inactive
CD47,1,-0.155,inactive
CD47,2,-0.163,inactive
CD47,3,-0.121,inactive
CD47,4,-0.422,inactive
MAD2L2,1,0.244,inactive
MAD2L2,2,-0.336,inactive
MAD2L2,3,-0.214,inactive
XPO7,1,-0.12,inactive
XPO7,2,0.08,inactive
XPO7,3,-0.33,inactive
XPO7,4,0.0625,inactive
DIO2,1,-0.159,inactive
DIO2,2,-0.611,inactive
DIO2,3,-0.184,inactive
WWOX,1,-0.407,inactive
WWOX,2,-0.135,inactive
WWOX,3,-0.326,inactive
WWOX,4,0.317,inactive
WWOX,5,0.271,inactive
WWOX,6,-0.166,inactive
WWOX,7,-0.335,inactive
WWOX,8,-0.205,inactive
TRIM37,1,-0.408,inactive
TRIM37,2,-0.0459,inactive
TRIM37,3,-0.101,inactive
TRIM37,4,-0.339,inactive

Records above whose gene name begins with C or c:
gene,siRNA no.,log2 vehicle/camptothecin viability,Call
CD47,1,-0.155,inactive
CD47,2,-0.163,inactive
CD47,3,-0.121,inactive
CD47,4,-0.422,inactive
